Data as given in patent US20150011001.

Target: T1, human RNase H1 (Homo sapiens) (UniProt O60930)
T1 sequence (looked up, limits assumed): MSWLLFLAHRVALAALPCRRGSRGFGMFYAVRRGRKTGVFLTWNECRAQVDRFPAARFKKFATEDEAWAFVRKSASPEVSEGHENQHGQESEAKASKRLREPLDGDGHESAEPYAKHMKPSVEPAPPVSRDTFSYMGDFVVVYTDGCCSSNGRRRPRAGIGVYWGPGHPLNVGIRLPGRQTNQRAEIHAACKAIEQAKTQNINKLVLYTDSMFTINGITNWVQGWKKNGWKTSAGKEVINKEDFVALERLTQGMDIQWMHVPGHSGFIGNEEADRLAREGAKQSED
Assay: enzyme reaction in vitro
Settings: 1 mM MgCl2, 37 C, purified recombinant protein, protein details: N-terminal His-tag, expressed in E. coli BL21(DE3), label: 5'-32P on RNA, DNA:RNA hybrid

CTACGCTTTCCACGCACAGT [C15 2'-ara-fluoro]
activity signal (ratio V0 modified/unmodified) (2'-ara-fluoro at position 15 (as labelled) of DNA strand): 1.1

AGTTTAGGTCTCCGATCGTC [ISIS 366702]
activity signal (ratio V0 modified/unmodified) (2'-MOE at 1-5 and 17-20, tetrafluoroindole at 6 and 16): 1.5

CTACGCTTTCCACGCACAGT [T7 2'-F]
activity signal (ratio V0 modified/unmodified) (2'-fluorothymidine at position 7 of DNA strand): 0.6

AGTTTAGGTCTCCGATCGTC [ISIS 366700]
activity signal (ratio V0 modified/unmodified) (2'-MOE at 1-5 and 16-20, tetrafluoroindole at 14): 0.66

AGTTTAGGTCTCCGATCGTC [ISIS 366695]
activity signal (ratio V0 modified/unmodified) (2'-MOE at 1-5 and 16-20, 2,3,4,5-tetrafluorophenyl at 6): 1.35

CTACGCTTTCCACGCACAGT [T9 2'-F]
activity signal (ratio V0 modified/unmodified) (2'-fluorothymidine at position 9 of DNA strand): 0.7

CTACGCTTTCCACGCACAGT [T9 3'-methyl]
activity signal (ratio V0 modified/unmodified) (3'-methylthymidine at position 9 of DNA strand): 0.7

CTACGCTTTCCACGCACAGT [C10 2'-ara-fluoro]
activity signal (ratio V0 modified/unmodified) (2'-ara-fluoro at position 10 of DNA strand): 1.2

CTACGCTTTCCACGCACAGT [C15 pentyl]
activity signal (ratio V0 modified/unmodified) (pentyl linker replacing position 15 (as labelled) of DNA strand): 0.5

CTACGCTTTCCACGCACAGT [T8 pseudo-U]
activity signal (ratio V0 modified/unmodified) (deoxypseudouridine at position 8 of DNA strand): 1.1

CTACGCTTTCCACGCACAGT [A12 4-Me-ben]
activity signal (ratio V0 modified/unmodified) (4-methylbenzoimidazole at position 12 of DNA strand): 0.8

AGTTTAGGTCTCCGATCGTC [ISIS 359470]
activity signal (ratio V0 modified/unmodified) (2'-MOE at 1-5 and 17-20, tetrafluoroindole at 16): 1.69

CTACGCTTTCCACGCACAGT [G14 propyl]
activity signal (ratio V0 modified/unmodified) (propyl linker replacing position 14 of DNA strand): 0.6

CTACGCTTTCCACGCACAGT [A12 butyl]
activity signal (ratio V0 modified/unmodified) (butyl linker replacing position 12 of DNA strand): 0.5

AGTTTAGGTCTCCGATCGTC [ISIS 366701]
activity signal (ratio V0 modified/unmodified) (2'-MOE wings (printed as 1-4 and 16-20), tetrafluoroindole labelled C13 (printed x)): 1.48

AGTTTAGGTCTCCGATCGTC [ISIS 359469]
activity signal (ratio V0 modified/unmodified) (2'-MOE at 1-5 and 16-20, tetrafluoroindole at 5): 0.77

CTACGCTTTCCACGCACAGT [C13 2'-ara-fluoro]
activity signal (ratio V0 modified/unmodified) (2'-ara-fluoro at position 13 of DNA strand): 1.1

AGTTTAGGTCTCCGATCGTC [ISIS 366697]
activity signal (ratio V0 modified/unmodified) (2'-MOE at 1-5 and 16-20, tetrafluoroindole at 7): 2.02

CTACGCTTTCCACGCACAGT [T9 4'-methyl]
activity signal (ratio V0 modified/unmodified) (4'-methylthymidine at position 9 of DNA strand): 0.3

AGTTTAGGTCTCCGATCGTC [ISIS 359471]
activity signal (ratio V0 modified/unmodified) (2'-MOE at 1-5 and 16-20, tetrafluoroindole at 15): 0.88

CTACGCTTTCCACGCACAGT [T8 2'-F]
activity signal (ratio V0 modified/unmodified) (2'-fluorothymidine at position 8 of DNA strand): 0.7

CTACGCTTTCCACGCACAGT [T9 S2U]
activity signal (ratio V0 modified/unmodified) (2-thiouridine (S2T) at position 9 of DNA strand): 0.7

CTACGCTTTCCACGCACAGT [A12 THF]
activity signal (ratio V0 modified/unmodified) (tetrahydrofuran at position 12 of DNA strand): 0.4

CTACGCTTTCCACGCACAGT [G14 THF]
activity signal (ratio V0 modified/unmodified) (tetrahydrofuran at position 14 of DNA strand): 0.4

CTACGCTTTCCACGCACAGT [T8 S2U]
activity signal (ratio V0 modified/unmodified) (2-thiouridine (S2T) at position 8 of DNA strand): 0.7

CTACGCTTTCCACGCACAGT [T8 2'-S-methyl]
activity signal (ratio V0 modified/unmodified) (2'-methylthiothymidine at position 8 of DNA strand): 0.4

CTACGCTTTCCACGCACAGT [C11 abasic]
activity signal (ratio V0 modified/unmodified) (abasic at position 11 of DNA strand): 0.5

CTACGCTTTCCACGCACAGT [T7 4'-methyl]
activity signal (ratio V0 modified/unmodified) (4'-methylthymidine at position 7 of DNA strand): 0.5

CTACGCTTTCCACGCACAGT [C10 2,4-F-tolyl]
activity signal (ratio V0 modified/unmodified) (2,4-difluorotoluoyl at position 10 of DNA strand): 0.9

CTACGCTTTCCACGCACAGT [T9 2,4-F-tolyl]
activity signal (ratio V0 modified/unmodified) (2,4-difluorotoluoyl at position 9 of DNA strand): 0.8

CTACGCTTTCCACGCACAGT [C15 butyl]
activity signal (ratio V0 modified/unmodified) (butyl linker replacing position 15 (as labelled) of DNA strand): 0.5

CTACGCTTTCCACGCACAGT [C15 propyl]
activity signal (ratio V0 modified/unmodified) (propyl linker replacing position 15 (as labelled) of DNA strand): 0.5

AGTTTAGGTCTCCGATCGTC [ISIS 366698]
activity signal (ratio V0 modified/unmodified) (2'-MOE at 1-5 and 16-20, tetrafluoroindole at 8): 1.09

CTACGCTTTCCACGCACAGT [T7 pseudo-U]
activity signal (ratio V0 modified/unmodified) (deoxypseudouridine at position 7 of DNA strand): 0.9

CTACGCTTTCCACGCACAGT [A12 pentyl]
activity signal (ratio V0 modified/unmodified) (pentyl linker replacing position 12 of DNA strand): 0.6

CTACGCTTTCCACGCACAGT [T8 4'-methyl]
activity signal (ratio V0 modified/unmodified) (4'-methylthymidine at position 8 of DNA strand): 0.6

Construct, isoform or probe ends are uncertain for at least one entry. The direction of at least one scale is not stated here. Protein sequences can lack the tags named with them.
